Legend:
APOE*3Leiden.CETP mice [1] = test: Liver weight and hepatic lipid analysis; details: for Liver lipids: CE (cholesterol esters) / Liver lipids: FC (free cholesterol) / Liver lipids: TG (triglycerides): alone or + atorvastatin, mean ± SD
APOE*3Leiden.CETP mice [2] = test: Fecal excretion of bile acids and neutral sterols; assay type: in vivo, mouse; details: alone or + atorvastatin, mean ± SD

| Compound | hepatic cholesteryl esters, change compared to the control group (APOE*3Leiden.CETP mice [1]; atorvastatin 3.6 mg/kg/d alone, 18 weeks) [%] | Bile acid excretion (APOE*3Leiden.CETP mice [2]; 3 mg mAb316P) [μmol/100 g mouse/day] | Neutral sterol excretion (APOE*3Leiden.CETP mice [2]; 3 mg mAb316P) [μmol/100 g mouse/day] | Bile acid excretion (APOE*3Leiden.CETP mice [2]; 10 mg mAb316P) [μmol/100 g mouse/day] | Neutral sterol excretion (APOE*3Leiden.CETP mice [2]; 10 mg mAb316P) [μmol/100 g mouse/day] | Liver lipids: CE (cholesterol esters) (APOE*3Leiden.CETP mice [1]; 3 mg mAb316P) [μg/mg protein] | Liver lipids: FC (free cholesterol) (APOE*3Leiden.CETP mice [1]; 3 mg mAb316P) [μg/mg protein] | Liver lipids: TG (triglycerides) (APOE*3Leiden.CETP mice [1]; 3 mg mAb316P) [μg/mg protein] | Liver lipids: CE (cholesterol esters) (APOE*3Leiden.CETP mice [1]; 10 mg mAb316P) [μg/mg protein] | Liver lipids: FC (free cholesterol) (APOE*3Leiden.CETP mice [1]; 10 mg mAb316P) [μg/mg protein] | Liver lipids: TG (triglycerides) (APOE*3Leiden.CETP mice [1]; 10 mg mAb316P) [μg/mg protein] | effect on hepatic content of cholesterol and TG (APOE*3Leiden.CETP mice [1]; mAb316P alone (3 or 10 mg/kg), 18 weeks) |
| --- | --- | --- | --- | --- | --- | --- | --- | --- | --- | --- | --- | --- |
| CC(C)c1c(C(=O)Nc2ccccc2)c(-c2ccccc2)c(-c2ccc(F)cc2)n1CC[C@@H](O)C[C@@H](O)CC(=O)O [atorvastatin, reference compound] | −48 | – | – | – | – | – | – | – | – | – | – | – |
| mAb316P: human anti-PCSK9 antibody; HCVR SEQ ID NO:1, LCVR SEQ ID NO:6 | – | 14.3 ± 2.7 | 20.4 ± 6.2 | 12.4 ± 3.2 | 21.6 ± 5.6 | 48.2 ± 8.2 | 11.2 ± 1.4 | 117.7 ± 21.6 | 53.9 ± 10.4 | 11.4 ± 2.0 | 142.1 ± 43.0 | did not affect |

From patent publication US10995150B2, “Methods for inhibiting atherosclerosis by administering an anti-PCSK9 antibody” (REGENERON PHARMACEUTICALS, INC., priority 2013, dated 2021)
